No constants are given. Whether binding was seen depends on the method and setting. Binding seen in cells or lysates may run through a third protein. A yes stands for co-enrichment or nearness to the bait. Other partners may have been found. No binding means not detected with the bait.
Biological target: T1, Biotinylated non-phosphorylated GHR_Y595 peptide on Neutravidin beads
T1 sequence (peptide, biotin-aminohexanoic acid on the N-terminus; C-terminal amide): PVPDYTSIHIV
Experiment: affinity purification with mass spectrometry; biotinylated GHR peptides (pY595 or Y595) on Neutravidin beads incubated with human K562 total cell lysate, 2 h at 4 °C; competition with 100 μM non-biotinylated GHR_pY595 in the lysate; tandem mass tag labelling and MS; only the target purified

binding | Substance
no binding | Cul5 (cullin 5), endogenous (from UniProt Q93034 1-780)
no binding | Rbx2 (RING box protein 2), endogenous (from UniProt Q9UBF6 1-113)

— publication PMC4326827, “Biophysical Studies on Interactions and Assembly of Full-size E3 Ubiquitin Ligase” (The Journal of Biological Chemistry, 2014)
